# Source: PubChem BioAssay AID504834 (National Center for Advancing Translational Sciences (NCATS), 2011)
# Out of some 320,000 compounds screened, about 22,000 (6.9%) were called active. The inconclusive results got no clear call from the source; some entries with a clear call stand among them for comparison. Calls follow the shape of the dose curve; as a rule, active = well fitted inhibition curve with a large enough effect; inconclusive = small, poorly fitted or top-dose-only effect, or another doubt; inactive = no such curve, though single readings can be large or run the other way. Where the call is inconclusive, the potency comes from a doubtful curve fit.
# Experiment: Primary qHTS for delayed death inhibitors of the malarial parasite plastid, 96 hour incubation
# Conditions: P. falciparum luciferase reporter growth; series mostly up to 28.7 µM; activity change, negative = inhibition: at the top concentration
# Outline: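 Two-generation exposure (96 h) targets delayed-death phenotype. Reporter parasites carrying integrated firefly luciferase, in red cells at 2% hematocrit and 0.05% parasitemia final, kept at 37 C, 5% CO2; luminescence loss indicates inhibition.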
# % is scaled to controls: 0 for no effect and ±100 for the full control effect; potency is read from the fitted curve at half-maximal effect.
Structure (SMILES),Potency,"activity change, negative = inhibition"
COc1cccc(NC(=O)CN(C)C(C)C(=O)Nc2ccc(S(=O)(=O)N3CCOCC3)cc2)c1 (stereo not drawn),active: 4.65 µM,–
CCCCCn1nc(C(=O)N2CCc3ccccc32)c2ccccc2c1=O,"inconclusive: 18.5 µM [inhibitor, single point]",–
COc1ccc(C(=O)CSc2ccccc2C(=O)O)cc1,–,inactive: 304%
O=C(NCc1ccccc1CN1CCCC1)c1cccc(S(=O)(=O)N2CCCC2)c1,"inconclusive: 10.4 µM [inhibitor, single point]",–
O=C(O)c1ccc(Cl)c(S(=O)(=O)Nc2cccc(C(=O)Nc3cccc(C(F)(F)F)c3)c2)c1,active: 10.4 µM,–
O=[N+]([O-])c1ccc(-c2nnc(-c3ccccc3)c(NCCCO)n2)cc1,active: 5.22 µM,–
COc1ccc(NC(=O)N(C2CCCCC2)C2CCN(C(C)C)CC2)c(OC)c1,"inconclusive: 0.0329 µM [inhibitor, full curve, poor fit]",–
CCOc1ccc(S(=O)(=O)Nc2cc(S(=O)(=O)N(CC)CC)ccc2N2CCCC2)cc1,active: 1.31 µM,–
O=C(O)c1ccc(NC(=O)c2ccc3c(c2)C(=O)N(c2ccccc2)C3=O)cc1,–,inactive: 5.19%
O=C(COc1cc2oc(=O)c3c(c2cc1Cl)CCC3)Nc1ccc(CN2CCOCC2)cc1,–,inactive: 15%
COc1ccc(CCNC2=C(Cl)C(=O)N(CCc3ccccc3)C2=O)cc1OC,"inconclusive: 18.5 µM [inhibitor, single point]",–
CCCn1c(N)nc2ccccc21,"inconclusive: 5.86 µM [inhibitor, partial curve, poor fit]",–
CC(C)n1cnc2cc(NC(=O)c3ccco3)ccc21,–,inactive: 4.82%
CC(=O)c1cccc(-n2c(CCC(=O)O)ccc2-c2ccc(C)cc2)c1,"inconclusive: 8.28 µM [inhibitor, partial curve, poor fit]",–
CCOc1ccc(N(CC)C(=O)COc2cc(=O)n(C)c3ccccc23)cc1,"inconclusive: 1.47 µM [inhibitor, partial curve]",–
CCCN(CCC)CCCNC(=S)Nc1ccc2nc(N3CCN(C)CC3)cc(C)c2c1,"inconclusive: 18.5 µM [inhibitor, single point]",–
CCN(Cc1ccccc1)S(=O)(=O)c1ccc(S(=O)(=O)N(Cc2ccccn2)Cc2ccco2)cc1,"inconclusive: 1.65 µM [inhibitor, full curve, poor fit]",–
CCOc1ccc(S(=O)(=O)N(CC)CC)cc1NS(=O)(=O)c1ccc(F)c(F)c1F,–,inactive: -8.75%
CCOc1ccc(-c2n[nH]c(=S)c3ccccc23)cc1,active: 1.65 µM,–
CCOC(=O)C(NCCc1ccccc1)(NC(=O)CC)C(F)(F)F (stereo not drawn),"inconclusive: 2.62 µM [inhibitor, single point]",–
CCCn1nc2cc(C(=O)NCC34CC5CC(CC(C5)C3)C4)ccc2c1OCC,"inconclusive: 2.62 µM [inhibitor, partial curve]",–
Cc1csc(NC(=O)C(C)N2C(=O)c3ccccc3S2(=O)=O)n1 (stereo not drawn),–,inactive: 22.5%
Cn1ncc2c1ncn1nc(CCc3ccccc3)nc21,"inconclusive: 4.65 µM [inhibitor, partial curve, poor fit]",–

# 2 of the compounds above, with bars between the fields.
Structure (SMILES) | Potency | activity change, negative = inhibition
CC(=O)c1cccc(-n2c(CCC(=O)O)ccc2-c2ccc(C)cc2)c1 | inconclusive: 8.28 µM [inhibitor, partial curve, poor fit] | –
CCOc1ccc(N(CC)C(=O)COc2cc(=O)n(C)c3ccccc23)cc1 | inconclusive: 1.47 µM [inhibitor, partial curve] | –

# Next part

Structure (SMILES),Potency,"activity change, negative = inhibition"
CCC1CCC2(CC1)SCC(=O)N2c1ccccc1 (stereo not drawn),"inconclusive: 0.0041 µM [inhibitor, full curve, poor fit]",–
NC(=O)CN1C(=O)C(O)(CC(=O)/C=C\c2ccc3c(c2)OCO3)c2ccccc21 (stereo not drawn),"inconclusive: 16.5 µM [inhibitor, partial curve, poor fit]",–
CC1CC(C)CN(CCCNC(=O)c2ccc3c(c2)NC(=O)CS3)C1 (stereo not drawn),–,inactive: -23.4%
Cc1ccc(NS(=O)(=O)c2cc([N+](=O)[O-])ccc2NNC(=S)Nc2cc(C)ccc2C)c(C)c1,active: 9.28 µM,–
CC1CCC(NC(=O)c2cccc(S(=O)(=O)N3CCN(c4ccc(F)cc4)CC3)c2)CC1 (stereo not drawn),"inconclusive: 1.31 µM [inhibitor, partial curve, poor fit]",–
CN(C)S(=O)(=O)c1ccc(N2CCCC2)c(C(=O)Nc2ccc(Br)cc2F)c1,active: 8.28 µM,–
O=C1CC(c2ccco2)Cc2nc(Nc3nc(-c4ccccc4)c4ccccc4n3)ncc21 (stereo not drawn),"inconclusive: 0.294 µM [inhibitor, full curve, poor fit]",–
COc1ccc(-c2cc(C(=O)NCCCN3CCOCC3)no2)cc1,–,inactive: 23.3%
Cc1nnc2c(N3CCN(C(=O)c4ccco4)CC3)nc3ccccc3n12,–,inactive: 32.4%
CN(CC(=O)NC(=O)NCc1ccccc1)Cc1ccc(Cl)c(Cl)c1,–,inactive: 53.6%
Cc1c(OCC(=O)N2C[C@H]3C[C@@H](C2)c2cccc(=O)n2C3)ccc2c3c(c(=O)oc12)CCCC3,"inconclusive: 11.7 µM [inhibitor, single point]",–
COc1ccc(Nc2nc(C(=O)N3CCc4ccccc4C3)cs2)cc1,–,inactive: -27.3%
COc1ccc(NC(C)=O)cc1S(=O)(=O)NC1CCSc2ccccc21 (stereo not drawn),–,inactive: 19.2%
CCC(C)Nc1nc(N)c([N+](=O)[O-])c(Nc2cc(OC)ccc2OC)n1 (stereo not drawn),"inconclusive: 4.15 µM [inhibitor, partial curve, poor fit]",–
O=C(c1ccc2c(c1)N(Cc1ccccc1)C(=O)c1ccccc1S2)N1CCCC1,"inconclusive: 0.0026 µM [inhibitor, full curve, poor fit]",–
CN1c2ccccc2C2(C)CCCC3=Cc4cc([N+](=O)[O-])cc([N+](=O)[O-])c4OC312 (stereo not drawn),"inconclusive: 1.17 µM [inhibitor, partial curve, poor fit]",–
Cc1ccccc1N=C(N)Nc1ccccc1C,active: 10.4 µM,–
CC(C)/C=C1\CCc2c([nH]c3ccccc23)C1=O,"inconclusive: 20.8 µM [inhibitor, single point]",–
CN(CCc1ccccn1)C(=O)c1cc(COc2ccc(F)cc2F)on1,"inconclusive: 18.5 µM [inhibitor, single point]",–
Cc1ccc(Cc2nc(-c3cccc(C)c3)no2)cc1,"inconclusive: 18.5 µM [inhibitor, single point]",–
Cc1ccc(N2CC(C(=O)Nc3nnc(SCC(=O)NCC4CCCO4)s3)CC2=O)cc1 (stereo not drawn),"inconclusive: 18.5 µM [inhibitor, single point]",–
CCn1ncc([N+](=O)[O-])c1C(=O)Nc1nc2cccc(C)c2s1,–,inactive: 15%
O=C(COc1ccc(F)cc1Br)Nc1ccccc1N1CCOCC1,"inconclusive: 0.0928 µM [inhibitor, full curve, poor fit]",–

Structure (SMILES),Potency,"activity change, negative = inhibition"
CCOc1ccc(CN(C)C(=O)CNC(=O)c2ccccc2)cc1,"inconclusive: 10.4 µM [inhibitor, single point]",–
CSc1ccccc1OCc1cc(C(=O)NC(C)Cc2cccc(C)n2)no1 (stereo not drawn),"inconclusive: 18.5 µM [inhibitor, single point]",–
O=C(CN(Cc1ccc(F)cc1)S(=O)(=O)c1ccc(S(=O)(=O)N2CCOCC2)cc1)Nc1ccccc1,"inconclusive: 4.65 µM [inhibitor, single point]",–
CCCSc1nsc(NC(=O)c2cccnc2OCC)n1,–,inactive: -11.2%
COC(=O)/C(=C/c1ccco1)NC(=O)c1ccco1,–,inactive: -7.82%
O=C(CCCOc1ccccc1)N1CCN(S(=O)(=O)c2ccc(Cl)cc2)CC1,–,inactive: 8.68%
C[C@@H]1CC=C[C@H]2[C@H]1C(=O)N(Cc1ccccc1)[C@H]2c1ccc2ccccc2c1Br,"inconclusive: 18.5 µM [inhibitor, single point]",–
COc1cccc(NC(=O)CN(C)C(=O)CSc2nc3ccccc3s2)c1,"inconclusive: 18.5 µM [inhibitor, single point]",–
O=C(COC(=O)/C=C/c1cccc(F)c1)NNC(=O)c1ccccc1,"inconclusive: 2.33 µM [inhibitor, partial curve, poor fit]",–
Cc1nn(-c2ccccc2)nc1CNC(=O)CC(C)(C)C,–,inactive: 24.9%
O=C(c1ccccc1)c1ccc(N2CCCC2)cc1,"inconclusive: 13.1 µM [inhibitor, single point]",–
CCOC(=O)c1c(C)[nH]c(C=C2C(=O)CCCC2=O)c1O,"inconclusive: 18.5 µM [inhibitor, single point]",–
Cc1nn(Cc2c(Cl)cccc2Cl)c(C)c1NC(=O)Cn1nc([N+](=O)[O-])c(Cl)c1C,"inconclusive: 20.8 µM [inhibitor, partial curve, poor fit]",–
CCN(CC)S(=O)(=O)c1ccc(Cl)c(NC(=S)NC(=O)C2CCCC2)c1,"inconclusive: 18.5 µM [inhibitor, single point]",–
O=C(Nc1nnc(-c2ccncc2)o1)c1ccccc1,"inconclusive: 4.65 µM [inhibitor, partial curve, poor fit]",–
C=CCn1c(=O)c2ccccc2n2c(SCC(=O)NCc3cccs3)nnc12,"inconclusive: 10.4 µM [inhibitor, partial curve, poor fit]",–
COc1ccccc1-n1c(SCC(=O)Nc2cccc(C(=O)O)c2)nnc1-c1ccccc1O,–,inactive: 22.7%
O=C(NC(=S)Nc1ccccn1)c1ccc([N+](=O)[O-])cc1,"inconclusive: 18.5 µM [inhibitor, single point]",–
CN(CCc1ccccn1)C(=O)CCC1CCCN(C(=O)c2n[nH]c3c2CCCC3)C1 (stereo not drawn),"inconclusive: 18.5 µM [inhibitor, single point]",–
Cc1ccc(N(CC(=O)NC2CCCCC2)C(=O)CCCC(=O)Nc2ccccn2)c(C)c1,"inconclusive: 11.7 µM [inhibitor, single point]",–
CCOc1ccc(NC(=O)CN(C)C(=O)CN2C(=O)C3CC=CCC3C2=O)cc1OCC (stereo not drawn),–,inactive: 12.7%
COc1ccc(C)cc1NC(=O)c1ccc(NS(=O)(=O)c2c(C)noc2C)cc1,"inconclusive: 14.7 µM [inhibitor, single point]",–
